# Reference: PMC5996148
# Where “and” joins values, the source holds several entries; their conditions need not be identical. Equal entries are not always repeated. Some of the results follow. For some assays here: The exact form of the protein is not confirmed.
# Experiments:
# Experiment in all cases: protein microarray (ProtoArray v5.0), streptavidin-Alexa Fluor 647
# Conditions in all cases: 3'-biotin; 20 mM Tris (pH 7.5), 5 mM MgCl2, 100 mM KCl, 0.1% Tween-20, A/T-rich and random oligonucleotide blockers; temperature not stated; high values mean tight binding
# BATF2 = biological target: T1, BATF2 (UniProt Q8N1L9)
# T1 sequence: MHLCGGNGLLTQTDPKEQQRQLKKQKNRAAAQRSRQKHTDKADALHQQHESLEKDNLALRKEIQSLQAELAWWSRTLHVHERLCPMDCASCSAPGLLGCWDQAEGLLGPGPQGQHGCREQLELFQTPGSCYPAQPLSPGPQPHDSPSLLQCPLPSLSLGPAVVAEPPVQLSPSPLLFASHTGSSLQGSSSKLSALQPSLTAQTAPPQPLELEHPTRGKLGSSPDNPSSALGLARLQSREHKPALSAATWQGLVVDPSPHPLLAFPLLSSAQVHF
# BBS2 (human) = system: BBS2 (human)
# BBS7 (human) = system: BBS7 (human)
# BCAR3 (human) = system: BCAR3 (human)
# BCKDK = BCKDK (UniProt O14874)
# BCL2A1 (human) = system: BCL2A1 (human)
# BCL2L11 (human) = system: BCL2L11 (human)
# BCL2L13 (human) = system: BCL2L13 (human)
# BHMT2 (human) = system: BHMT2 (human)
# BID (human) = system: BID (human)
# BIN1 = biological target: T2, BIN1 (UniProt O00499)
# T2 sequence: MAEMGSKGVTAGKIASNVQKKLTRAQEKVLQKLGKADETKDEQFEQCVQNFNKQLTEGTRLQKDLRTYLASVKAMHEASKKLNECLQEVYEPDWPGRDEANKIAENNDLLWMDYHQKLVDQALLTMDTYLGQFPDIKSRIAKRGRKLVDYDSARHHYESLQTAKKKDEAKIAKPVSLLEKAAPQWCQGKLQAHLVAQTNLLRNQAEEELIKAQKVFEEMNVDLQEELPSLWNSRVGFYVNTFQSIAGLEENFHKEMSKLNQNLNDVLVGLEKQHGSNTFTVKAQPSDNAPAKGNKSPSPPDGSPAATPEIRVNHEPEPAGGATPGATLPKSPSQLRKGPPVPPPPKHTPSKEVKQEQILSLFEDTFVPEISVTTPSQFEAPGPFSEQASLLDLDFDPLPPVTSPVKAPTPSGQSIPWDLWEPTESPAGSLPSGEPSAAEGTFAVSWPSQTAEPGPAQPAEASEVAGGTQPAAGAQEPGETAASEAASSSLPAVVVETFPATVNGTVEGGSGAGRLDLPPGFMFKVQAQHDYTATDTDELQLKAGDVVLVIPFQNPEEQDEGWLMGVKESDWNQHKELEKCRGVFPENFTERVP
# BIRC5 (human) = system: BIRC5 (human)
# BIRC7 (human) = system: BIRC7 (human)
# BLVRB (human) = system: BLVRB (human)
# BMF (human) = system: BMF (human)
# BRD3 = BRD3 (UniProt Q15059)
# BRD9 (human) = system: BRD9 (human)
# BSG = biological target: T3, BSG (UniProt P35613)
# T3 sequence: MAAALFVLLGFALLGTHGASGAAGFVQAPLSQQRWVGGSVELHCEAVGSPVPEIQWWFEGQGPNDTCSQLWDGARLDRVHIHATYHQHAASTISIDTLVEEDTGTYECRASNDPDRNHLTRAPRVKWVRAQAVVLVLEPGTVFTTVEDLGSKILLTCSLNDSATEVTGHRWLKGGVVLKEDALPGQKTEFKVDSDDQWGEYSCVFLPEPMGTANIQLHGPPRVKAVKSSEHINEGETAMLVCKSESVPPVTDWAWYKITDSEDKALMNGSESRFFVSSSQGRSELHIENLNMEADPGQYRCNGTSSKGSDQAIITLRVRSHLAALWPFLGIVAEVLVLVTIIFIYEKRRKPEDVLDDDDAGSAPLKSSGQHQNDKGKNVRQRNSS
# BTG2 (human) = system: BTG2 (human)
# BUD31 = biological target: T4, BUD31 (UniProt P41223)
# T4 sequence: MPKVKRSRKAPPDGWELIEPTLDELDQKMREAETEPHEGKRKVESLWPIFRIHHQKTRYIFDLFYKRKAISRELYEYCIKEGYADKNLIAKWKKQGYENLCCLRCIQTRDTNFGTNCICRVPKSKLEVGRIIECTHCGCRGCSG
sequence,measurement,setting,value
GGGGACAGGGGTATGGGGAGGGG [G4-3 biotinylated (CtG)],binding signal,BATF2,-0.332 z-score
same,binding signal,BBS2 (human),-0.319 z-score
same,binding signal,BBS7 (human),-0.327 z-score
same,binding signal,BCAR3 (human),-0.333 z-score
same,binding signal,BCKDK,-0.308 z-score
same,binding signal,BCL2A1 (human),-0.325 z-score
same,binding signal,BCL2L11 (human),-0.349 z-score
same,binding signal,BCL2L13 (human),-0.338 z-score
same,binding signal,BHMT2 (human),-0.321 z-score
same,binding signal,BID (human),-0.335 z-score and -0.314 z-score
same,binding signal,BIN1,-0.332 z-score and -0.328 z-score
same,binding signal,BIRC5 (human),-0.333 z-score
same,binding signal,BIRC7 (human),-0.325 z-score
same,binding signal,BLVRB (human),-0.316 z-score
same,binding signal,BMF (human),-0.337 z-score and -0.336 z-score
same,binding signal,BRD3,4.51 z-score
same,binding signal,BRD9 (human),-0.335 z-score
same,binding signal,BSG,-0.303 z-score
same,binding signal,BTG2 (human),-0.32 z-score
same,binding signal,BUD31,3.1 z-score

# In a second layout: results already given
sequence	measurement	setting	value
GGGGACAGGGGTATGGGGAGGGG [G4-3 biotinylated (CtG)]	binding signal	BID (human)	-0.335 z-score and -0.314 z-score
same	binding signal	BIN1	-0.332 z-score and -0.328 z-score
